{"source": "paper PMC4114980", "molecules": {"B1": {"name": "Chro-M (329-600), truncated COOH-terminal domain of Chromator, GST-fusion protein (domain or fragment, UniProt Q86BS3 329-600)", "chain": "AMDAFKQWVNETVAGDGSSSPSSANEDESSTEQEWPPSSGAIKRKLNNTDSSLEGSGLNDSMDLEDLEEDLPSHTVKRLKNGGSSVQLNKPRIQSTEKQQTKINGNSTVVSPLTEQKMGEIIYTEDSTSSGMFRKPEMPNTINLKKEKPECPVRYLSRSEVGSSTRGVFRVENSEAPAPVSPAPVPQKVIAAPPAAGIAKRLPMARPAHSGANSPITVGQRQHALRTPGHGPVTAALHRRPGVGGASHVRQNLQQAPGRAHPGGRVLARAGV"}, "B2": {"name": "Chro-CTD (329–926), COOH-terminal domain of Chromator, GST-fusion protein (domain or fragment, UniProt Q86BS3 329-926)", "chain": "AMDAFKQWVNETVAGDGSSSPSSANEDESSTEQEWPPSSGAIKRKLNNTDSSLEGSGLNDSMDLEDLEEDLPSHTVKRLKNGGSSVQLNKPRIQSTEKQQTKINGNSTVVSPLTEQKMGEIIYTEDSTSSGMFRKPEMPNTINLKKEKPECPVRYLSRSEVGSSTRGVFRVENSEAPAPVSPAPVPQKVIAAPPAAGIAKRLPMARPAHSGANSPITVGQRQHALRTPGHGPVTAALHRRPGVGGASHVRQNLQQAPGRAHPGGRVLARAGVGTPQHRQQVQTPQGAKAVTPEQKILQLSKSGDLKVTRKVVTREELLAQRSAQARQRQALSQQQSSQQQKATPARQRIVSKSTIQPTPLQMELEEEIHQHQAQLCPITGKLIGQEETQLQMEQEQQQEQQREQLEAAAQALLGSDQQVLTNEDGSALLVRGEDGTVYQVAGKNAEGQTILVTQGPDGEQQFAYVAAAEGEDQDVLSLDHAVAEAVQAGEQVESHGVGAATADGEQILVSMTEEELAQHQVLQQAEASAAGTGTPPTAQIHITTSDSDGTESQIPAEVVQADLPSPGGTRRVVLLLQDGTFMMTEMHEDQFKTLNIPT"}, "B3": {"name": "Chro-NTD (1–346), NH2-terminal domain of Chromator, GST-fusion protein (domain or fragment, UniProt Q86BS3 1-346)", "chain": "MLAQEISPTEIGKHANIIRAAQEELANMDVLVCGRCLRAYNFVEEFQAHKEDACEKENANLKESLDPKPTIWAFTLWKATQLHSRKDASGSSWALYQHWVKLDDSVREPWIVAGKTIQSFGKIAHGQLQDMPVRITKTVVNPNNNNTSNSNNNNTSVSPTRKSPTGKLPTLANQLKDTENERPKSKPSTPTPSSVPSAGAVKPNNRIAIRIDSKTDQRTEEPVEKIVAKRFNPRRKTHEYLVKWVDRSHHENTWEVMANLERVPYFLQMFEKQLARQKLTREKGLDALKRMQSSGTNAKSDTAAPHSPLPASSQVSPSSRPSRTSKTKAMDAFKQWVNETVAGDGS"}, "B4": {"name": "Chro-421 (601–926), truncated COOH-terminal domain of Chromator, GST-fusion protein (domain or fragment, UniProt Q86BS3 601-926)", "chain": "GTPQHRQQVQTPQGAKAVTPEQKILQLSKSGDLKVTRKVVTREELLAQRSAQARQRQALSQQQSSQQQKATPARQRIVSKSTIQPTPLQMELEEEIHQHQAQLCPITGKLIGQEETQLQMEQEQQQEQQREQLEAAAQALLGSDQQVLTNEDGSALLVRGEDGTVYQVAGKNAEGQTILVTQGPDGEQQFAYVAAAEGEDQDVLSLDHAVAEAVQAGEQVESHGVGAATADGEQILVSMTEEELAQHQVLQQAEASAAGTGTPPTAQIHITTSDSDGTESQIPAEVVQADLPSPGGTRRVVLLLQDGTFMMTEMHEDQFKTLNIPT"}}, "key": {"[1]": {"molecular_target": "T1, Chromator (endogenous, S2 cells) (Drosophila (endogenous in S2 cells)) (UniProt Q86BS3)", "T1 sequence": "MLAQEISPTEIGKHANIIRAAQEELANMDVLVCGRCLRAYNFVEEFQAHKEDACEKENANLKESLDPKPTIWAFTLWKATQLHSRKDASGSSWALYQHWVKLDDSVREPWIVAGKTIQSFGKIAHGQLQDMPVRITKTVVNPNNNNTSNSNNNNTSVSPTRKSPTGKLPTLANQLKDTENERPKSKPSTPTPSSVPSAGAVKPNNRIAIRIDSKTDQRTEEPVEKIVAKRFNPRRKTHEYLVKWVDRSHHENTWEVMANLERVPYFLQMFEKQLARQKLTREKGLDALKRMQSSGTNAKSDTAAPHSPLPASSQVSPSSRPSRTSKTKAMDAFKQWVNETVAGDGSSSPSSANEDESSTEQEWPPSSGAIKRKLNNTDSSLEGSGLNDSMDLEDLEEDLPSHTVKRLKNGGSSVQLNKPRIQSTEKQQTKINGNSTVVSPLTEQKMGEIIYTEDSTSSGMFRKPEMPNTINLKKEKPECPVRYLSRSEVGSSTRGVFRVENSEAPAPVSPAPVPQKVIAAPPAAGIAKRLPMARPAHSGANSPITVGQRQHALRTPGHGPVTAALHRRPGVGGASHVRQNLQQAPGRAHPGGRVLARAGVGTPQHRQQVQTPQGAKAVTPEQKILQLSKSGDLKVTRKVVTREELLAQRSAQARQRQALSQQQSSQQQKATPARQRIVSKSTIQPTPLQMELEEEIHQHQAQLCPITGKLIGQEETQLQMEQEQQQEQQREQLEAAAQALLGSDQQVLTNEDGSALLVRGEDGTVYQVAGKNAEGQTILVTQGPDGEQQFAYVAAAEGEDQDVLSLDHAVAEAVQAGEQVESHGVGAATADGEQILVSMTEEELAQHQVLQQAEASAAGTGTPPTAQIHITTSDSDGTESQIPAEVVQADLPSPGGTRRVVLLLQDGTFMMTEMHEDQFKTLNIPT", "assay": "co-IP; untreated S2 cell lysate; anti-alpha-tubulin antibody or Chromator mAb 12H9 on protein G-Sepharose beads, overnight at 4°C in ip buffer; blots with mAb 6H11 or anti-tubulin antibody"}, "[2]": {"molecular_target": "T2, Chro-FL (1–926), full-length Chromator GST-fusion protein (Drosophila) (UniProt Q86BS3)", "T2 sequence": "T1 sequence", "assay": "pull-down; Chro-FL-GST or GST on glutathione-agarose beads, incubated with S2 cell lysate at 4°C overnight; blot with tubulin antibody; colchicine or taxol not stated for this panel (Fig. 1C); only the target purified"}, "[3]": {"molecular_target": "T3, Chro-CTD (329–926), COOH-terminal domain of Chromator, GST-fusion protein (Drosophila) (UniProt Q86BS3)", "T3 sequence": "B2 chain", "assay": "pull-down; GST fusion proteins or GST on glutathione agarose beads, incubated with S2 cell lysate with 1 mg/ml colchicine (microtubules depolymerized) at 4°C overnight; blot with anti-tubulin antibody; only the target purified"}, "[4]": {"molecular_target": "T2, Chro-FL (1–926), full-length Chromator GST-fusion protein (Drosophila)", "assay": "pull-down; GST fusion proteins or GST on glutathione agarose beads, incubated with S2 cell lysate with 1 mg/ml colchicine (microtubules depolymerized) at 4°C overnight; blot with anti-tubulin antibody; only the target purified"}, "[5]": {"molecular_target": "T4, Chro-M (329-600), truncated COOH-terminal domain of Chromator, GST-fusion protein (Drosophila) (UniProt Q86BS3)", "T4 sequence": "B1 chain", "assay": "pull-down; GST fusion proteins or GST on glutathione agarose beads, incubated with S2 cell lysate with 1 mg/ml colchicine (microtubules depolymerized) at 4°C overnight; blot with anti-tubulin antibody; only the target purified"}, "[6]": {"molecular_target": "T5, Chro-NTD (1–346), NH2-terminal domain of Chromator, GST-fusion protein (Drosophila) (UniProt Q86BS3)", "T5 sequence": "B3 chain", "assay": "pull-down; GST fusion proteins or GST on glutathione agarose beads, incubated with S2 cell lysate with 1 mg/ml colchicine (microtubules depolymerized) at 4°C overnight; blot with anti-tubulin antibody; only the target purified"}, "[7]": {"molecular_target": "purified bovine brain tubulin (bovine)", "assay": "co-sedimentation; microtubules assembled from 16 µg bovine brain tubulin in PEM buffer with 20 µM taxol and 2 mM GTP, incubated with GST fusion proteins at room temperature for 30 min, pelleted at 75,000 rpm for 20 min; pellet and supernatant blotted; both purified"}}, "note": "No constants are given. Whether binding was seen depends on the method and setting. For some of these results: Binding calls can cover weak binding; strength is not graded here. For some of these results: Where a sequence is shown, tags or fusion partners need not be part of it. For some of these results: In cells and extracts the contact can be indirect."}
{"molecule": "tubulin (endogenous, S2 cells) (Drosophila (endogenous in S2 cells)) (complex)", "values": [{"measurement": "binding", "setting": "[1]", "value": "binds"}, {"measurement": "binding", "setting": "[2]", "value": "binds"}, {"measurement": "binding", "setting": "[3]", "value": "binds"}, {"measurement": "binding", "setting": "[4]", "value": "binds"}, {"measurement": "binding", "setting": "[5]", "value": "binds"}, {"measurement": "binding", "setting": "[6]", "value": "no binding"}]}
{"molecule": "B1", "values": [{"measurement": "binding", "setting": "[7]", "value": "binds"}]}
{"molecule": "B2", "values": [{"measurement": "binding", "setting": "[7]", "value": "binds"}]}
{"molecule": "B3", "values": [{"measurement": "binding", "setting": "[7]", "value": "no binding"}]}
{"molecule": "B4", "values": [{"measurement": "binding", "setting": "[7]", "value": "no binding"}]}
